PubChem BioAssay AID504834 (National Center for Advancing Translational Sciences (NCATS), 2011)
Hit rate of the full screen: of about 320,000 compounds, about 22,000 (6.9%) were called active. The shares of active, inactive and inconclusive entries below differ from those in the screen. Calls come from the whole dose curve; as a rule, active = well fitted inhibition curve with a large enough effect; inconclusive = small, poorly fitted or top-dose-only effect, or another doubt; inactive = no such curve, though single readings can be large or run the other way. A potency beside an inconclusive call is a rough fit, not a confirmed value.
Potency is the fitted concentration of half-maximal effect.

Assay: Primary qHTS for delayed death inhibitors of the malarial parasite plastid, 96 hour incubation
Conditions: P. falciparum luciferase reporter growth; series mostly up to 28.7 µM
Outline: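 Cell-based qHTS: luciferase-tagged P. falciparum in erythrocytes (2% hematocrit, 0.05% parasitemia final) incubated with compounds for 96 hours, 37 C, 5% CO2; luciferase detection reagent then added and luminescence measured.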
With `O=C(Cc1c2ccccc2nc2ccccc12)c1ccccc1` the Potency was inconclusive: 18.5 µM [inhibitor, single point]. With `CCNC(=S)NNC(=O)c1cc(CC(C)C)nc2ccccc12` the Potency was inconclusive: 5.22 µM [inhibitor, partial curve, poor fit]. In the case of `COc1ccccc1N1CCN(/N=C\c2ccc(C)o2)CC1`, the Potency is reported as inconclusive: 0.329 µM [inhibitor, partial curve, poor fit]. With `CCc1cccc2c(C(=O)COC(=O)C3=NNC(=O)CC3)c[nH]c12` the Potency was “inactive”. For `O=c1c2ccccc2nc(/C=C/c2ccc3c(c2)OCO3)n1CCCO`, the Potency was “inactive”. In the case of `N#C/C(=C(/O)COC(=O)CCc1ccc(S(=O)(=O)N2CCOCC2)cc1)c1nc2ccccc2[nH]1`, the Potency is reported as inconclusive: 18.5 µM [inhibitor, single point]. With `O=C(NNc1ccccc1Br)C(=O)n1ccc2ccccc21` the Potency was inconclusive: 18.5 µM [inhibitor, single point]. With `Cc1ccc2cc(CN(CC3CCCO3)C(=O)C(C)C)c(=O)[nH]c2c1` (stereo unspecified) the Potency was inconclusive: 18.5 µM [inhibitor, single point]. For `Cc1cccc(C)c1NC(=O)CNC(=O)c1cn(-c2ccccc2)nc1-c1ccccc1`, the Potency was inconclusive: 8.28 µM [inhibitor, single point]. In the case of `C/C(=N/NC(=O)NC12CC3CC(CC(C3)C1)C2)c1ccccc1`, the Potency is reported as active: 0.738 µM. With `CCOC(=O)c1nn(-c2ccc(Br)cc2)cc1C(=O)c1cccc2ccccc12` the Potency was “inactive”. For `COC(=O)c1sccc1NC(=O)c1cc(-c2ccc(C)cc2C)nc2ccccc12`, the Potency was inconclusive: 6.57 µM [inhibitor, partial curve, poor fit]. With `CN1C[C@@H]2C(c3ccccc3)C3(c4ccccc4)CC2(C3)[C@H]1c1ccccc1` (stereo partly specified) the Potency was inconclusive: 18.5 µM [inhibitor, single point]. In the case of `CCN(CCO)Cc1csc2ccc(C(C)(C)C)cc12`, the Potency is reported as inconclusive: 18.5 µM [inhibitor, single point]. In the case of `Cc1ccc(NC(=O)COC(=O)Cn2cnc3ccccc32)cc1S(=O)(=O)N(C)C`, the Potency is reported as inconclusive: 11.7 µM [inhibitor, single point]. With `CCCN1C(=O)/C(=C/c2cc(C)n(C)c2C)SC1=Nc1ccc(OC)cc1` the Potency was active: 13.1 µM. For `CCc1nnc(SCC(=O)Nc2ccc(N3CCOCC3)cc2)n1C`, the Potency was inconclusive: 18.5 µM [inhibitor, single point]. For `COc1ccc(C2c3ccc(O)cc3Oc3ncn(CCCO)c(=N)c32)cc1OC` (stereo unspecified), the Potency was inconclusive: 18.5 µM [inhibitor, partial curve, poor fit]. For `COc1cc(F)cc(-c2ccc3c(c2)c(-c2cccs2)c(-c2cc(OC)cc(OC)c2)n3C)c1`, the Potency was inconclusive: 5.22 µM [inhibitor, partial curve]. In the case of `CCCCCCn1c(-c2ccco2)nc2oc3cc(OC)ccc3c(=O)c2c1=O`, the Potency is reported as inconclusive: 3.7 µM [inhibitor, full curve, poor fit]. In the case of `CCOc1ccc(S(=O)(=O)N(C)c2ccc(OCC(=O)Nc3nccs3)cc2)cc1`, the Potency is reported as inconclusive: 2.94 µM [inhibitor, single point]. In the case of `CCN(CC)C(=O)c1[nH]cnc1C(=O)NCC(=O)OC(C)(C)C`, the Potency is reported as inconclusive: 0.0037 µM [inhibitor, full curve, poor fit]. In the case of `O=C(O)CCc1ccc(-c2ccc(Br)cc2)n1-c1ccc(O)cc1`, the Potency is reported as inconclusive: 8.28 µM [inhibitor, partial curve, poor fit]. With `CCOc1ccc(-c2nnc3ccc(SC)nn23)cc1` the Potency was inconclusive: 0.928 µM [inhibitor, partial curve, poor fit]. With `Cc1ccccc1C1=N/C(=C/c2cccs2)C(=O)O1` the Potency was inconclusive: 4.15 µM [inhibitor, single point]. For `COc1ccc(CCn2c(=N)c(C(=O)NCC3CCCO3)cc3c(=O)n4cccc(C)c4nc32)cc1OC` (stereo unspecified), the Potency was inconclusive: 2.62 µM [inhibitor, full curve]. In the case of `Cc1cc(NC(=O)CCC(=O)N(c2ccccc2F)C(C(=O)NC2CCCC2)c2ccccc2)no1` (stereo unspecified), the Potency is reported as inconclusive: 7.38 µM [inhibitor, partial curve, poor fit]. With `CC(C)(C)[C@H]1C=C(C(=O)NCc2nc3ccccc3[nH]2)O[C@@H](OCCCCO)C1` the Potency was active: 10.4 µM. With `CC(c1ccncn1)N(C)Cc1nc(Cc2ccccc2F)no1` (stereo unspecified) the Potency was inconclusive: 11.7 µM [inhibitor, single point]. With `Cc1cc(C)n2nc(SCC(=O)N/N=C/c3ccc(F)cc3)nc2n1` the Potency was “inactive”. For `O=C(NCc1nnc(SCC(=O)N2CCCCCC2)o1)c1ccccc1F`, the Potency was “inactive”. With `CC(C)C(=O)N(Cc1cc2ccccc2[nH]c1=O)C(C)(C)C` the Potency was inconclusive: 20.8 µM [inhibitor, partial curve, poor fit]. In the case of `Oc1ccc2c3c1O[C@H]1c4[nH]c5ccccc5c4C[C@@]4(O)[C@@H](C2)N(CC2CC2)CC[C@]314`, the Potency is reported as inconclusive: 18.5 µM [inhibitor, single point]. With `O=C1[C@H]2CCCC[C@H]2C(=O)N1CCCCN1CCN(c2nsc3ccccc23)CC1` the Potency was active: 12 µM. With `COc1cccc(NC(=O)C2CCCN(S(=O)(=O)c3cccc4cccnc34)C2)c1` (stereo unspecified) the Potency was inconclusive: 14.7 µM [inhibitor, partial curve, poor fit]. In the case of `C#CCOc1ccc(C2C3=C(COC3=O)Nc3cc4c(cc32)OCO4)cc1OC` (stereo unspecified), the Potency is reported as inconclusive: 14.7 µM [inhibitor, single point]. In the case of `COc1ccc(C)cc1NC(=O)c1ccc([N+](=O)[O-])cc1[N+](=O)[O-]`, the Potency is reported as inconclusive: 10.4 µM [inhibitor, single point]. For `Cn1nc(-c2ccccc2)c(CO)c1Oc1ccc(F)cc1`, the Potency was “inactive”. In the case of `Cc1ccc(N(CCC#N)C(=O)COC(=O)c2cc(C)oc2C)cc1`, the Potency is reported as inconclusive: 18.5 µM [inhibitor, single point]. In the case of `O=C(CCC1CCCCC1)NCCS(=O)(=O)N1CCN(c2ccccc2)CC1`, the Potency is reported as “inactive”. In the case of `COCCN(C(=O)Cc1coc2cc(C)c(C)cc12)c1c(N)n(Cc2ccccc2)c(=O)[nH]c1=O`, the Potency is reported as “inactive”.
